Results from publication doi:10.1101/2025.03.28.645988.

Protein sequences, listed by entry. Tags and fused reporters are not part of them. Lines headed by an entry give the natural chain unless they say otherwise; changes in a name come on top.
UniProt P25095: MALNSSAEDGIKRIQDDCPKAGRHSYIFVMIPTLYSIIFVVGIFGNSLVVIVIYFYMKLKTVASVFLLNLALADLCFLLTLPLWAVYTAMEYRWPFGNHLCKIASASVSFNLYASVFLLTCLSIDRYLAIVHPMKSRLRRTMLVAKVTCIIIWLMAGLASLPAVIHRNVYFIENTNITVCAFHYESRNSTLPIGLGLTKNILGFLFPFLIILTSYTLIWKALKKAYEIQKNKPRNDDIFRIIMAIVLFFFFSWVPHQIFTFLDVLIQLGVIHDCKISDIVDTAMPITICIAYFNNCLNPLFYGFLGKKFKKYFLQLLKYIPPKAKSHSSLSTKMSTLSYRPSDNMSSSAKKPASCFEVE
UniProt P29066: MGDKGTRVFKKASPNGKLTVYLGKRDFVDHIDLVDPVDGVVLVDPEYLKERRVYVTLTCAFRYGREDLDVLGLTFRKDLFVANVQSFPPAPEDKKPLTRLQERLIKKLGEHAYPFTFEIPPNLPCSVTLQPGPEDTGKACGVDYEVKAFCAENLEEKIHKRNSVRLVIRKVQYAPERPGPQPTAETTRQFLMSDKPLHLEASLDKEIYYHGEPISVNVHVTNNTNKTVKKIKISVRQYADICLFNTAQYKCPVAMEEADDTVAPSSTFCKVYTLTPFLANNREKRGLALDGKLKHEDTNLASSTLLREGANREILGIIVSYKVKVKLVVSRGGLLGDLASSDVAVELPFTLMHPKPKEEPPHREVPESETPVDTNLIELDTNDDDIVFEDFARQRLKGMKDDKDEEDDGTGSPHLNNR
UniProt P29067: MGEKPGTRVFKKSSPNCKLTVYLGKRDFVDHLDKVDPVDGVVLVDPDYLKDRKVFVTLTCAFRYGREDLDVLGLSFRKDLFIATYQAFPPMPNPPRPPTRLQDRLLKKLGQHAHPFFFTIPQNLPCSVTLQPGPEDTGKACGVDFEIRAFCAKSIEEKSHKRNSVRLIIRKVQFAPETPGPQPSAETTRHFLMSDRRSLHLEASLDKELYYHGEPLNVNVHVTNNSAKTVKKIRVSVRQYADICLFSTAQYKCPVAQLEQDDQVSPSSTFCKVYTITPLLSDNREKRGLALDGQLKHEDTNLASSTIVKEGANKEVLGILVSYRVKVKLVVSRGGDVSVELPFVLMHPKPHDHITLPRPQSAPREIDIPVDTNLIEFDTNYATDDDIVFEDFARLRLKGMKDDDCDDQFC

Target: DRY/AAY mutant AT1 angiotensin II receptor, Luciferase-tagged (AT1R-DRY-RLuc) (UniProt P25095)
Experiment: FRET or BRET; BRET between AT1R-Luciferase (wild type or DRY mutant) and mVenus-tagged β-arrestins in living β-arrestin1/2 double KO HEK293 cells; stimulation with 100 nM AngII; 37°C, modified Krebs-Ringer buffer pH 7.4, 5 μM coelenterazine h; ratios against DMSO-treated cells, AUC compared

binding | Substance
binds | β-arrestin1-mVenus (rat β-arrestin1, wild type) (from UniProt P29066 1-418)
binds | β-arrestin2-mVenus (rat β-arrestin2, wild type) (from UniProt P29067 1-410)

Results are given in words; binding and its absence hold for the method and conditions named. In cells and extracts the contact can be indirect. Binding calls can cover weak binding; strength is not graded here.
